Here are results for three molecules from article PMC6639074.

Amino acid sequences for entries named in this document (tags omitted). A change or cut given only in a name is not applied to a line headed by its entry. Chains listed by the source or under a name are the forms on record and can include a tag or linker.
Rab5A(Q79L)-BirA*-HA-MAO (P20339, form named): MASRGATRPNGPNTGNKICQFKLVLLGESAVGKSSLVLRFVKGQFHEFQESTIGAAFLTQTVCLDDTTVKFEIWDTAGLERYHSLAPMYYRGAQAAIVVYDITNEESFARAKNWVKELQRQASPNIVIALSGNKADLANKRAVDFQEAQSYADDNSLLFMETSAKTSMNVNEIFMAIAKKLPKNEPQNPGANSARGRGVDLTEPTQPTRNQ
UniProt P60953: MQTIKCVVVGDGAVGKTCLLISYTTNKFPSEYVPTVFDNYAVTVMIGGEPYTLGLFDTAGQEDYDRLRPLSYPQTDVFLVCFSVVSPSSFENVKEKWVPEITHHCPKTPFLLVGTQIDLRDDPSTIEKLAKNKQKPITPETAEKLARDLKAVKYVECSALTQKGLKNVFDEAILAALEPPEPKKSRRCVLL

For assay [1], the target named is Rab5A(Q79L)-BirA*-HA-MAO (human) (UniProt P20339). Description: proximity labelling; MitoID with versions of Rab5A(Q79L), streptavidin precipitates immunoblotted for Rab5 effectors. In general terms: Immunoblotting shows a protein as a band on a membrane.
For assay [2] the target is unchanged. The experiment in a line: proximity labelling; MitoID: GTPase-BirA*-HA-MAO chimera on mitochondria of transiently transfected HEK293T cells, 50 uM biotin 18 h, streptavidin beads, mass spectrometry, biological triplicates; hits by WD scores and volcano plots against the GDP-locked forms.
The target of assay [3] is T1, Rab2A(S20N)-BirA*-HA-MAO (human) (UniProt P61019).
T1 sequence: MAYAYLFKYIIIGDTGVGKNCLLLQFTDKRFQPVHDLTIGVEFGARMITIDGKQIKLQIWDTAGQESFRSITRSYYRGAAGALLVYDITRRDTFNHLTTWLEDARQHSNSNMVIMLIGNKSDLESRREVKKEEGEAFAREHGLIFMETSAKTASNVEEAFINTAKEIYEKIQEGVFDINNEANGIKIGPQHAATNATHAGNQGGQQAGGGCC
Described as above.

The target in assay [4] is Cdc42(G12V)-BirA*-HA-MAO (human) (UniProt P60953). The description is as above.

Results are given in words; binding and its absence hold for the method and conditions named. In cells and extracts the contact can be indirect. Here binding means that the protein was enriched with, or labelled near, the bait; the list need not be complete. For some of these results: Sequences can lack the tags named with a protein.

B1: OSBPL9 (protein, UniProt Q96SU4 1-736)
chain: MASIMEGPLSKWTNVMKGWQYRWFVLDYNAGLLSYYTSKDKMMRGSRRGCVRLRGAVIGIDDEDDSTFTITVDQKTFHFQARDADEREKWIHALEETILRHTLQLQGLDSGFVPSVQDFDKKLTEADAYLQILIEQLKLFDDKLQNCKEDEQRKKIETLKETTNSMVESIKHCIVLLQIAKDQSNAEKHADGMISTINPVDAIYQPSPLEPVISTMPSQTVLPPEPVQLCKSEQRPSSLPVGPVLATLGHHQTPTPNSTGSGHSPPSSSLTSPSHVNLSPNTVPEFSYSSSEDEFYDADEFHQSGSSPKRLIDSSGSASVLTHSSSGNSLKRPDTTESLNSSLSNGTSDADLFDSHDDRDDDAEAGSVEEHKSVIMHLLSQVRLGMDLTKVVLPTFILERRSLLEMYADFFAHPDLFVSISDQKDPKDRMVQVVKWYLSAFHAGRKGSVAKKPYNPILGEIFQCHWTLPNDTEENTELVSEGPVPWVSKNSVTFVAEQVSHHPPISAFYAECFNKKIQFNAHIWTKSKFLGMSIGVHNIGQGCVSCLDYDEHYILTFPNGYGRSILTVPWVELGGECNINCSKTGYSANIIFHTKPFYGGKKHRITAEIFSPNDKKSFCSIEGEWNGVMYAKYATGENTVFVDTKKLPIIKKKVRKLEDQNEYESRSLWKDVTFNLKIRDIDAATEAKHRLEERQRAEARERKEKEIQWETRLFHEDGECWVYDEPLLKRLGAAKH
As to B1, the binding result in assay [1] and in assay [2] was “binds” each time.

B2: CLEC16A (protein, UniProt Q2KHT3 1-1053)
chain: MFGRSRSWVGGGHGKTSRNIHSLDHLKYLYHVLTKNTTVTEQNRNLLVETIRSITEILIWGDQNDSSVFDFFLEKNMFVFFLNILRQKSGRYVCVQLLQTLNILFENISHETSLYYLLSNNYVNSIIVHKFDFSDEEIMAYYISFLKTLSLKLNNHTVHFFYNEHTNDFALYTEAIKFFNHPESMVRIAVRTITLNVYKVSLDNQAMLHYIRDKTAVPYFSNLVWFIGSHVIELDDCVQTDEEHRNRGKLSDLVAEHLDHLHYLNDILIINCEFLNDVLTDHLLNRLFLPLYVYSLENQDKGGERPKISLPVSLYLLSQVFLIIHHAPLVNSLAEVILNGDLSEMYAKTEQDIQRSSAKPSIRCFIKPTETLERSLEMNKHKGKRRVQKRPNYKNVGEEEDEEKGPTEDAQEDAEKAKGTEGGSKGIKTSGESEEIEMVIMERSKLSELAASTSVQEQNTTDEEKSAAATCSESTQWSRPFLDMVYHALDSPDDDYHALFVLCLLYAMSHNKGMDPEKLERIQLPVPNAAEKTTYNHPLAERLIRIMNNAAQPDGKIRLATLELSCLLLKQQVLMSAGCIMKDVHLACLEGAREESVHLVRHFYKGEDIFLDMFEDEYRSMTMKPMNVEYLMMDASILLPPTGTPLTGIDFVKRLPCGDVEKTRRAIRVFFMLRSLSLQLRGEPETQLPLTREEDLIKTDDVLDLNNSDLIACTVITKDGGMVQRFLAVDIYQMSLVEPDVSRLGWGVVKFAGLLQDMQVTGVEDDSRALNITIHKPASSPHSKPFPILQATFIFSDHIRCIIAKQRLAKGRIQARRMKMQRIAALLDLPIQPTTEVLGFGLGSSTSTQHLPFRFYDQGRRGSSDPTVQRSVFASVDKVPGFAVAQCINQHSSPSLSSQSPPSASGSPSGSGSTSHCDSGGTSSSSTPSTAQSPADAPMSPELPKPHLPDQLVIVNETEADSKPSKNVARSAAVETASLSPSLVPARQPTISLLCEDTADTLSVESLTLVPPVDPHSLRSLTGMPPLSTPAAACTEPVGEEAACAEPVGTAED
Turning to B2, in assay [3], the binding entry is given as “binds”.

B3: PLEKHG4 (protein, UniProt Q58EX7 1-1191)
chain: MERPLENGDESPDSQGHATDWRFAVCSFRDAWEEEEPASQMHVKDPGPPRPPAGATQDEELQGSPLSRKFQLPPAADESGDAQRGTVESSSVLSEGPGPSGVESLLCPMSSHLSLAQGESDTPGVGLVGDPGPSRAMPSGLSPGALDSDPVGLGDPLSEISKLLEAAPSGSGLPKPADCLLAQDLCWELLASGMATLPGTRDVQGRAVLLLCAHSPAWLQSECSSQELIRLLLYLRSIPRPEVQALGLTVLVDARICAPSSSLFSGLSQLQEAAPGAVYQVLLVGSTLLKEVPSGLQLEQLPSQSLLTHIPTAGLPTSLGGGLPYCHQAWLDFRRRLEALLQNCQAACALLQGAIESVKAVPQPMEPGEVGQLLQQTEVLMQQVLDSPWLAWLQCQGGRELTWLKQEVPEVTLSPDYRTAMDKADELYDRVDGLLHQLTLQSNQRIQALELVQTLEARESGLHQIEVWLQQVGWPALEEAGEPSLDMLLQAQGSFQELYQVAQEQVRQGEKFLQPLTGWEAAELDPPGARFLALRAQLTEFSRALAQRCQRLADAERLFQLFREALTWAEEGQRVLAELEQERPGVVLQQLQLHWTRHPDLPPAHFRKMWALATGLGSEAIRQECRWAWARCQDTWLALDQKLEASLKLPPVGSTASLCVSQVPAAPAHPPLRKAYSFDRNLGQSLSEPACHCHHAATIAACRRPEAGGGALPQASPTVPPPGSSDPRSLNRLQLVLAEMVATEREYVRALEYTMENYFPELDRPDVPQGLRGQRAHLFGNLEKLRDFHCHFFLRELEACTRHPPRVAYAFLRHRVQFGMYALYSKNKPRSDALMSSYGHTFFKDKQQALGDHLDLASYLLKPIQRMGKYALLLQELARACGGPTQELSALREAQSLVHFQLRHGNDLLAMDAIQGCDVNLKEQGQLVRQDEFVVRTGRHKSVRRIFLFEELLLFSKPRHGPTGVDTFAYKRSFKMADLGLTECCGNSNLRFEIWFRRRKARDTFVLQASSLAIKQAWTADISHLLWRQAVHNKEVRMAEMVSMGVGNKAFRDIAPSEEAINDRTVNYVLKCREVRSRASIAVAPFDHDSLYLGASNSLPGDPASCSVLGSLNLHLYRDPALLGLRCPLYPSFPEEAALEAEAELGGQPSLTAEDSEISSQCPSASGSSGSDSSCVSGQALGRGLEDLPCV
For the molecule B3, in assay [4], the binding result is listed as “binds”.
